From the supplement of paper PMC10849652
The other results are listed elsewhere or left out.

Chains of the proteins cited; added tags and fusions are not shown. Lines headed by an entry give the natural chain unless they say otherwise; changes in a name come on top.
UniProt Q86XR7, whole entry, looked up: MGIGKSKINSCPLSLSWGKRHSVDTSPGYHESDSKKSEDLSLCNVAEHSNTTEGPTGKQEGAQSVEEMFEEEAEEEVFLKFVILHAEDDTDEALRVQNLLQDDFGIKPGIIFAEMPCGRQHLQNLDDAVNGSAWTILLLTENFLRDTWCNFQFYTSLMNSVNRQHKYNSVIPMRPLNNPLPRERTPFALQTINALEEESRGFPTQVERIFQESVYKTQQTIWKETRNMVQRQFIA
UniProt Q9BTF0: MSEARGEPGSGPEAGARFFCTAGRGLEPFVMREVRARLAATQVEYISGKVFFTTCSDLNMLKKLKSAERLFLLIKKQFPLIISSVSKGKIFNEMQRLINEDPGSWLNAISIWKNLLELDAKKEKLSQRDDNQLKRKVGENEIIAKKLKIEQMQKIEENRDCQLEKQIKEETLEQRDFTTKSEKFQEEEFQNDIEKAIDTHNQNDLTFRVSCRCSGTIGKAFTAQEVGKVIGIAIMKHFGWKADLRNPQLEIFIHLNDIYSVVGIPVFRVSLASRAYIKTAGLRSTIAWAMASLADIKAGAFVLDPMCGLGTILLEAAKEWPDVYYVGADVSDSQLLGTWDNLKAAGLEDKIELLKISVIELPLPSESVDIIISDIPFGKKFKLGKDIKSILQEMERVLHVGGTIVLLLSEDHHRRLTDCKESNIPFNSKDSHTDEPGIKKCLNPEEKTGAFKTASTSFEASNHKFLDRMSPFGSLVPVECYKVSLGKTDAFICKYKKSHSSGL
UniProt Q9UM00: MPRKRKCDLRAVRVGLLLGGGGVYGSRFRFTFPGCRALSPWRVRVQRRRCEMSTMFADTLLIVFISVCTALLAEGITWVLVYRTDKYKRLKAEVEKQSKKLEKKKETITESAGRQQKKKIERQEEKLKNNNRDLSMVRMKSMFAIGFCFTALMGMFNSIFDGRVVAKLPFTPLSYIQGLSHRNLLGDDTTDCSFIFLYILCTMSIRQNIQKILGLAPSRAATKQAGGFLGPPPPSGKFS
UniProt O43493: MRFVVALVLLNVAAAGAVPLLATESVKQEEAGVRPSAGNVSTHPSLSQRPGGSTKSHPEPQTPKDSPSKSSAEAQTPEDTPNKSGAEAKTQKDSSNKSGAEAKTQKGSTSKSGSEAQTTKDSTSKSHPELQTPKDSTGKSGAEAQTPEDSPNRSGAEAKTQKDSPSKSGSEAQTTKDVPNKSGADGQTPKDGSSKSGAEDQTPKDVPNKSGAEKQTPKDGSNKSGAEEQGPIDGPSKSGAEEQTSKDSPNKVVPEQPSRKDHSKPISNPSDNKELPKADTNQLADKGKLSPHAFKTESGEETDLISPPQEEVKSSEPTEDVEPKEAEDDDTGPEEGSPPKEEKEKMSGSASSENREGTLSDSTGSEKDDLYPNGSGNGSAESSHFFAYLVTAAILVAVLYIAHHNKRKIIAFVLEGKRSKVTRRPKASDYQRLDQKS
UniProt Q969X1: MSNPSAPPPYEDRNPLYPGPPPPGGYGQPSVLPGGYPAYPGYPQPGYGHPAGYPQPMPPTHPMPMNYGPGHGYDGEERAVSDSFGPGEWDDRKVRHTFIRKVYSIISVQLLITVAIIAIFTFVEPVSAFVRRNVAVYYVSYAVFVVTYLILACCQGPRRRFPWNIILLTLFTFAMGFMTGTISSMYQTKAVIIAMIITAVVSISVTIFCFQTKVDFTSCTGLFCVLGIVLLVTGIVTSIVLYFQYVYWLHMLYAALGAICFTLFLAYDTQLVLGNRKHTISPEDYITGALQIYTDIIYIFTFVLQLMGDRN
UniProt Q9BXJ8: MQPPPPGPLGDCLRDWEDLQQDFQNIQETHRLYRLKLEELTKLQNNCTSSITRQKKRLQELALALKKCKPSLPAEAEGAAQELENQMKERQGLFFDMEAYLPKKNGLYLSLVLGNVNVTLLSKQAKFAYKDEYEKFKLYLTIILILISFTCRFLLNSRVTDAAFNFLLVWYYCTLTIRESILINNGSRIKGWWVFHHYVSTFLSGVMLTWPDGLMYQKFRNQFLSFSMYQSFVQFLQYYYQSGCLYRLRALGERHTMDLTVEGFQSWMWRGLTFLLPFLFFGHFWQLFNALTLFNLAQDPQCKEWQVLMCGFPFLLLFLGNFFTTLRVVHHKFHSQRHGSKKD
UniProt Q9NPL8: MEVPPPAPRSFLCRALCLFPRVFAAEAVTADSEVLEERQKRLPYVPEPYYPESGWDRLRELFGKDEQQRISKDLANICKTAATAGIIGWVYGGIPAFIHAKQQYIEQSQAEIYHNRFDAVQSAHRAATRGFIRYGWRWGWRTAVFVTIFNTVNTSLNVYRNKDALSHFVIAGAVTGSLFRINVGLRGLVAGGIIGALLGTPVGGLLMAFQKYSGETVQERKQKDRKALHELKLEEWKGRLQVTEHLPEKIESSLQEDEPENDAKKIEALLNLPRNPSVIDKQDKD
UniProt O14925: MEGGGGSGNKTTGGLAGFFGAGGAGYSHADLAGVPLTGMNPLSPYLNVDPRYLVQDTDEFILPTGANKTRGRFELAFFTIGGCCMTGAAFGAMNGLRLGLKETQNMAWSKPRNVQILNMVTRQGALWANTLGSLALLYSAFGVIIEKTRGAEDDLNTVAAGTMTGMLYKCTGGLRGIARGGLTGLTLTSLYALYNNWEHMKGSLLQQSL
UniProt Q9P016: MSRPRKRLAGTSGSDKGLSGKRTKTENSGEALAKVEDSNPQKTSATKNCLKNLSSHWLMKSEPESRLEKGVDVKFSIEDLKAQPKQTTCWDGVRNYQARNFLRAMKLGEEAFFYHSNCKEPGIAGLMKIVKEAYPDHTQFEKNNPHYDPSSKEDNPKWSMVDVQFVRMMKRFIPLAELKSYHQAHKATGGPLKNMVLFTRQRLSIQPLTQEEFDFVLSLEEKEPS
UniProt Q96DC7: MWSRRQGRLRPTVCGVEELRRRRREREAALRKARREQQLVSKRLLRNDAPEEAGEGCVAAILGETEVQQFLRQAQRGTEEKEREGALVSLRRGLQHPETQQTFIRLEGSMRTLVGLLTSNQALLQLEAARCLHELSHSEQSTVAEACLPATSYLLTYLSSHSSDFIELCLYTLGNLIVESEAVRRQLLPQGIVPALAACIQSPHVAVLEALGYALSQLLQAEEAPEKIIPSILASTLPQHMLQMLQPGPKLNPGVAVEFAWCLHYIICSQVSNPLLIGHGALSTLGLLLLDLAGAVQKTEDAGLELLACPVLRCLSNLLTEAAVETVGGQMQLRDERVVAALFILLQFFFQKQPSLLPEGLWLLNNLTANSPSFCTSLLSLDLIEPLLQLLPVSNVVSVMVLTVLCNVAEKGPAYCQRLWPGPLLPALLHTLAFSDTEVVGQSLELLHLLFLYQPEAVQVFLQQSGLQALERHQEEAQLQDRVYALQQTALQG
UniProt Q9BVC6: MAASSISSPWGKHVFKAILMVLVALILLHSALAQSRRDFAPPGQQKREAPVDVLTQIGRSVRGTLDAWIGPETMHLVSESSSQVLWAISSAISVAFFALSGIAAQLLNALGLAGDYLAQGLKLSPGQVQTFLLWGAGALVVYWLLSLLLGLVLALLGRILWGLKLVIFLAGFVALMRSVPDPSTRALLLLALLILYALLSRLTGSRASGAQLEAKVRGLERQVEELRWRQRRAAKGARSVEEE
UniProt Q13769: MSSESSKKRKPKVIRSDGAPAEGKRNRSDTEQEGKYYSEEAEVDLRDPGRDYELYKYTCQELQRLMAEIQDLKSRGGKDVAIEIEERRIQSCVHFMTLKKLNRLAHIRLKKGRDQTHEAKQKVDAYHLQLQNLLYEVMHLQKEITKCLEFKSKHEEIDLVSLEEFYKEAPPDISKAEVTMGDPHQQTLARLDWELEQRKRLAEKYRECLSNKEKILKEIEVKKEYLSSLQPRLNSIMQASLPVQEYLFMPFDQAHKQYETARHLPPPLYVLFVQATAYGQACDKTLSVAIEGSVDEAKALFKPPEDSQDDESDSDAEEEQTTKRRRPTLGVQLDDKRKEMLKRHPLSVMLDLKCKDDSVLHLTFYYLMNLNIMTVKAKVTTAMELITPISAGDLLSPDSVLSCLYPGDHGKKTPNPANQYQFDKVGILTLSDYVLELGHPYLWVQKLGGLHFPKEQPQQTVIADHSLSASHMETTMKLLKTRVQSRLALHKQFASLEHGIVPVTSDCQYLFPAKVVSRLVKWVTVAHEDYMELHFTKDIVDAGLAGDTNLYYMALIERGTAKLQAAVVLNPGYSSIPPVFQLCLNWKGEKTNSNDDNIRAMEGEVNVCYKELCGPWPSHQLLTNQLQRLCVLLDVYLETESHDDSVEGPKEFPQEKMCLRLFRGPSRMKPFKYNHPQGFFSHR
UniProt Q96FV9: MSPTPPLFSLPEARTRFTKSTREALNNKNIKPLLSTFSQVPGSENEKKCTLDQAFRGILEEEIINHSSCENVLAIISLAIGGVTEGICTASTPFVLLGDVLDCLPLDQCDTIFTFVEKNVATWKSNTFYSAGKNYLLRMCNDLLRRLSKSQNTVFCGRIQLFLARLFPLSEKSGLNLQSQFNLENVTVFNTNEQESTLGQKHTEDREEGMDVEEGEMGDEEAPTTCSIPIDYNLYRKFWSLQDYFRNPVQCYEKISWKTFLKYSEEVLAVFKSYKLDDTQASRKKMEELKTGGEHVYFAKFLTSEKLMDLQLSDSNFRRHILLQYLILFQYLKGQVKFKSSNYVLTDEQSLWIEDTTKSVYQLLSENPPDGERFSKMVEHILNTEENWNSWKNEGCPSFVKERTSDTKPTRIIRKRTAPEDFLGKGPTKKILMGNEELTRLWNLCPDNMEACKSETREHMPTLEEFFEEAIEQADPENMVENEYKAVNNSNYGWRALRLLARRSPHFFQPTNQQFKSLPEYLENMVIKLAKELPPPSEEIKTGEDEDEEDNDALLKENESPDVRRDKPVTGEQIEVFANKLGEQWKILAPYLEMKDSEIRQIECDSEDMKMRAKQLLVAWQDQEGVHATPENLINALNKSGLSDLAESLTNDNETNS
UniProt Q9Y2S6, whole entry, looked up: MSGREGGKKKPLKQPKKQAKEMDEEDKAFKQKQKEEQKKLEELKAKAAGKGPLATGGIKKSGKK
UniProt Q9Y584: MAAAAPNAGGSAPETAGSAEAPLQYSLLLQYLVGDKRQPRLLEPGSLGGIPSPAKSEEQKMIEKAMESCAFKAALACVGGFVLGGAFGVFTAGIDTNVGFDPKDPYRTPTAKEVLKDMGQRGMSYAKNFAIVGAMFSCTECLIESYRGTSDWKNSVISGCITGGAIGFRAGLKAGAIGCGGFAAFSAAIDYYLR
UniProt Q5T1C6: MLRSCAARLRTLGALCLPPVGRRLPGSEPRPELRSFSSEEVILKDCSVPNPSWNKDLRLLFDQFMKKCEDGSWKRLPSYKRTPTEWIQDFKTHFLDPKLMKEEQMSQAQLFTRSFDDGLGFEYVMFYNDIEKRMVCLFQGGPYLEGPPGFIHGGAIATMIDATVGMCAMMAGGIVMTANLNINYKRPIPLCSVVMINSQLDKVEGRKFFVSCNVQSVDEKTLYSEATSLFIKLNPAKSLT
UniProt P49755: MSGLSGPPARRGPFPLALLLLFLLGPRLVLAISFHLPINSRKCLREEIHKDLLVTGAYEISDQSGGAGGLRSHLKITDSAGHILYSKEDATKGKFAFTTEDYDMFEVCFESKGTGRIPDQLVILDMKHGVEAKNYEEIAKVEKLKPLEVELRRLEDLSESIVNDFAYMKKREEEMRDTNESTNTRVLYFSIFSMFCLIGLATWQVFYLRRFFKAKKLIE
UniProt O60830: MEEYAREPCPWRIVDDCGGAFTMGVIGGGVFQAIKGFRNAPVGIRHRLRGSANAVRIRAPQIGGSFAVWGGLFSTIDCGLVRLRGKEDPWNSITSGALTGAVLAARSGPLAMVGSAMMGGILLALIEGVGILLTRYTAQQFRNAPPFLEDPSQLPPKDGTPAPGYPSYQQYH
UniProt Q6PL24: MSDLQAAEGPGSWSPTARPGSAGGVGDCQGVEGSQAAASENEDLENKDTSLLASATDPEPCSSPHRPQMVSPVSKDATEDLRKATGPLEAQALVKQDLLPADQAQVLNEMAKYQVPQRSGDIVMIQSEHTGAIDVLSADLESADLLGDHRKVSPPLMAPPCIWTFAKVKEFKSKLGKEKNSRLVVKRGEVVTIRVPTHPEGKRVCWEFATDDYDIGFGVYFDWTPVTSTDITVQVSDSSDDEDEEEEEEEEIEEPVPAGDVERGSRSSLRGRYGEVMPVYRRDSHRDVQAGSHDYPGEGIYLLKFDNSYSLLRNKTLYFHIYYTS
UniProt Q01085: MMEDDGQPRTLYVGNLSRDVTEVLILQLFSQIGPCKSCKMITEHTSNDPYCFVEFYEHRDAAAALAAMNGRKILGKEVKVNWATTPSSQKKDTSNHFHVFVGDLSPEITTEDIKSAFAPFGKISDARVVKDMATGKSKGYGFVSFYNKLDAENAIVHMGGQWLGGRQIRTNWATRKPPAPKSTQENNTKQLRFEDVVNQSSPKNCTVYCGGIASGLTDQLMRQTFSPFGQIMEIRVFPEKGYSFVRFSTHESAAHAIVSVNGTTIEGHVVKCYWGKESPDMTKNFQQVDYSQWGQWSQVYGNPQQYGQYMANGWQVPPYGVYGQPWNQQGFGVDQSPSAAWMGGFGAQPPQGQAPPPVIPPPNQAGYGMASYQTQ

compound: C[C@@H](Oc1cc(-c2cnn(C3CCNCC3)c2)cnc1N)c1c(Cl)ccc(F)c1Cl [crizotinib]; assay: log2 fold change, soluble protein after heating vs DMSO (PISA); higher = thermal stabilisation; K562 lysate, 10 uM; active = over 0.2 and 3.5 SD of the protein, either way, in both replicates (recomputed)
Outline: (§1)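 Pellets of K562 cells were dounce-homogenised in PBS pH 7.4 with 1 mM MgCl2, and the crude extract was held at 1 mg/mL protein for a 30 min treatment with 10 μM compound. Aliquots were heated for 3 min over 48°C-58°C and pooled before NP-40 was added to 0.5% at 4°C. The supernatant from 21,000xg for 90 min was quantified by TMTpro 16plex LC-MS/MS with channel sums equalised. Values are reported from duplicates as log-two fold change in thermal stability relative to solvent controls.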

log2 fold change, inactive:
TICAM2 isoform 2 (UniProt Q86XR7) -0.033
THUMPD2 (UniProt Q9BTF0) -0.013
TMCO1 (UniProt Q9UM00) 0.011
TGOLN2 isoform 7 (UniProt O43493) 0.045
TMBIM1 (UniProt Q969X1) -0.019
TMEM120A (UniProt Q9BXJ8) -0.093
TIMMDC1 (UniProt Q9NPL8) 0.018
TIMM23 (UniProt O14925) -0.012
TJP2 isoform 7 (UniProt Q9UDY2) -0.023
TMEM185B (UniProt Q9H7F4) -0.075
TM9SF4 (UniProt Q92544) -0.031
TMEM168 (UniProt Q9H0V1) -0.054
TMEM164 (UniProt Q5U3C3) -0.03
THYN1 (UniProt Q9P016) 0.046
THNSL1 (UniProt Q8IYQ7) -0.041
TMBIM6 isoform 2 (UniProt P55061) -0.012
THOP1 (UniProt P52888) 0.014
TMCO6 isoform 2 (UniProt Q96DC7) -0.149
TMEM109 (UniProt Q9BVC6) 0.032
THOC5 (UniProt Q13769) -0.011
THOC1 (UniProt Q96FV9) -0.022
TLE4 isoform 3 (UniProt Q04727) 0.038
TGS1 (UniProt Q96RS0) -0.019
TIMM29 (UniProt Q9BSF4) 0.044
TLN2 (UniProt Q9Y4G6) 0.007
TMEM126A (UniProt Q9H061) 0.06
TMED5 (UniProt Q9Y3A6) 0.072
TMA7 (UniProt Q9Y2S6) 0.164
TIMM22 (UniProt Q9Y584) 0.134
TMEM161A (UniProt Q9NX61) -0.067
TIMM44 (UniProt O43615) 0.055
THEM4 (UniProt Q5T1C6) -0.014
TMED10 (UniProt P49755) -0.04
TMA16 (UniProt Q96EY4) -0.018
TIPRL (UniProt O75663) -0.023
TIMM17A (UniProt Q99595) 0.117
TIMM17B (UniProt O60830) 0.004
TIMM50 isoform 2 (UniProt Q3ZCQ8) -0.023
TMED8 (UniProt Q6PL24) -0.028
TIAL1 isoform 2 (UniProt Q01085) 0.038

compound: C[C@H](C1=CC=C(C=C1)C(=O)NC2=C3C=CNC3=NC=C2)N; assay: as above
Outline: as §1

log2 fold change, active:
TMEM164 (UniProt Q5U3C3) -0.789

log2 fold change, inactive:
TICAM2 isoform 2 (UniProt Q86XR7) -0.04
THUMPD2 (UniProt Q9BTF0) -0.013
TMCO1 (UniProt Q9UM00) 0.031
TGOLN2 isoform 7 (UniProt O43493) -0.051
TMBIM1 (UniProt Q969X1) -0.077
TMEM120A (UniProt Q9BXJ8) -0.001
TIMMDC1 (UniProt Q9NPL8) -0.047
TIMM23 (UniProt O14925) -0.052
TJP2 isoform 7 (UniProt Q9UDY2) -0.062
TMEM185B (UniProt Q9H7F4) 0.119
TM9SF4 (UniProt Q92544) -0.076
TMEM168 (UniProt Q9H0V1) -0.125
THYN1 (UniProt Q9P016) 0.052
THNSL1 (UniProt Q8IYQ7) 0.062
TMBIM6 isoform 2 (UniProt P55061) -0.054
THOP1 (UniProt P52888) -0.044
TMCO6 isoform 2 (UniProt Q96DC7) -0.149
TMEM109 (UniProt Q9BVC6) 0.034
THOC5 (UniProt Q13769) -0.024
THOC1 (UniProt Q96FV9) -0.096
TLE4 isoform 3 (UniProt Q04727) -0.099
TGS1 (UniProt Q96RS0) -0.099
TIMM29 (UniProt Q9BSF4) 0.002
TLN2 (UniProt Q9Y4G6) 0.035
TMEM126A (UniProt Q9H061) 0.006
TMED5 (UniProt Q9Y3A6) -0.015
TMA7 (UniProt Q9Y2S6) -0.08
TIMM22 (UniProt Q9Y584) -0.058
TMEM161A (UniProt Q9NX61) 0.066
TIMM44 (UniProt O43615) 0.009
THEM4 (UniProt Q5T1C6) 0.005
TMED10 (UniProt P49755) 0.095
TMA16 (UniProt Q96EY4) -0.033
TIPRL (UniProt O75663) -0.056
TIMM17A (UniProt Q99595) 0.012
TIMM17B (UniProt O60830) -0.022
TIMM50 isoform 2 (UniProt Q3ZCQ8) 0.01
TMED8 (UniProt Q6PL24) 0.001
TIAL1 isoform 2 (UniProt Q01085) -0.024
